Experimental data taken from the supplement of paper PMC3334620.
The full ranking holds about 33,000 sequences; the median of “E-score (-0.5 to 0.5)” is about -0.0014, and the highest 2% start at about 0.25. The list shows a part of the results.

Target: T1, Cad1 (UniProt P24813)
T1 sequence: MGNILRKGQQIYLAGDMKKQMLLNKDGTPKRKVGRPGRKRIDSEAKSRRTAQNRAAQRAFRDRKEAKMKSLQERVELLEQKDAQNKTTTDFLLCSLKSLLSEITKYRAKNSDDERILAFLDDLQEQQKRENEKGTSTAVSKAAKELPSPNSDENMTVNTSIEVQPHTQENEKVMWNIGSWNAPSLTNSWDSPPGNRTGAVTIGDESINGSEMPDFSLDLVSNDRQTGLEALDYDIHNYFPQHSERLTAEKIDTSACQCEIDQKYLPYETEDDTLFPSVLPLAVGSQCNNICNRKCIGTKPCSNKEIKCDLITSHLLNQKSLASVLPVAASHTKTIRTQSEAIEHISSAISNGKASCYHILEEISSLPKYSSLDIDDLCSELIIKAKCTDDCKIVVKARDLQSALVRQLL
Experiment: PBM E-score (8-mer binding enrichment) (E-score (-0.5 to 0.5)); higher = stronger / more preferred TF binding
Conditions: protein concentration: 100 nM; construct: GST-full length
Summary of the method: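 Each ungapped eight-base word and its reverse complement, pooled, received an E-score from the Universal PBM Analysis Suite. Underlying scans, normalised with masliner, recorded fluorescent anti-GST bound to GST-tagged yeast transcription factors. These were applied at about 100-200 nM to universal all-10-mer Agilent arrays double-stranded by primer extension.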

Row | Sequence | PBM E-score
1 | AAAAGCAT | 0.0297
2 | AATTCCGC | 0.134
3 | GGACCATA | -0.233
4 | ATGACCAC | 0.0111
5 | GATTCAAC | 0.0284
6 | GTGCGGAA | 0.0803
7 | ACGATAGC | 0.0382
8 | AAACACCG | 0.0237
9 | AGCGACGC | 0.124
10 | ACTTTAGA | -0.102
11 | ACTTCACG | 0.0107
12 | AGGGACAC | -0.0633
13 | GGGGCTTA | -0.205
14 | CAGTCTGC | -0.121
15 | CACAGATA | 0.0872
16 | ACGCATTC | 0.0308
17 | CACAGGCA | -0.108
18 | AAAGATGT | 0.0214
19 | CCTAGCCC | -0.224
20 | GAGGAGCC | -0.298
21 | CGTTGATC | 0.0738
22 | ATATCGCG | 0.267

Part of the list above, as a markdown table.

| Row | Sequence | PBM E-score |
| --- | --- | --- |
| 1 | AAAAGCAT | 0.0297 |
| 6 | GTGCGGAA | 0.0803 |
| 8 | AAACACCG | 0.0237 |
| 10 | ACTTTAGA | -0.102 |
| 14 | CAGTCTGC | -0.121 |

(further entries)

Row | Sequence | PBM E-score
23 | AACGGAGA | 0.00419
24 | CAATCTAA | -0.0478
25 | AGTGTATA | -0.023
26 | GAGTTCGC | 0.101
27 | ACTCCAGG | -0.0811
28 | GCTAGTAA | 0.00044
29 | GACCGGTA | -0.341
30 | AAACTACT | 0.082
31 | CGCGTGAG | 0.269
32 | AGCGAGCT | 0.139
33 | AGGTTCAC | 0.0861
34 | AACGGCTC | -0.029
35 | AGCTGTCA | 0.114
36 | AACGCCCA | 0.0142
37 | CAGAAACC | 0.0934
38 | CGTTCGGA | 0.129
39 | CACAGGGA | -0.194
40 | CGCCTTAG | 0.0418
41 | CTCCACTC | -0.274
42 | AACGTACA | 0.0359
43 | CGGCCGGC | 0.00567
44 | GGTAACTA | 0.169

Row | Sequence | PBM E-score
45 | CCTAAAAG | -0.178
46 | CAGGAAAG | -0.272
47 | CGTGCGTC | 0.149
48 | CATTCACC | -0.00775
49 | CAAGGCTG | -0.0461
50 | GGCAGTCA | -0.00415
51 | ACGCGTGA | 0.226
52 | ACTGTGGC | -0.209
53 | CCGAGTCG | 0.0136
54 | ACTCTTAA | -0.0337
55 | ACTCATGC | 0.0941
56 | ACACTCAC | 0.0365
57 | TAACGGCA | 0.0277
58 | AACCTGCG | -0.142
59 | CAGCCAAA | 0.138
60 | CGCTTTCC | -0.0421
61 | AAGTGGTG | 0.00917
62 | GTGGTCGA | -0.14
63 | GGGTCATA | -0.239
64 | AACACGGG | 0.0495
65 | ACAAATCC | 0.214
66 | CCGTAAGC | 0.117

Row | Sequence | PBM E-score
67 | CACCTTGA | -0.0765
68 | ACCCACGC | -0.15
69 | TTCGAGAA | 0.101
70 | CCACGTGG | -0.139
71 | AGACGCAC | 0.0398
72 | CCTCGCCA | -0.268
73 | GGCGGCTA | 0.0654
74 | AGATCCTA | 0.0182
75 | GCATCAAA | 0.0684
76 | AAGACTAC | -0.0145
77 | GACTGGCC | -0.09
78 | CCACGTGC | 0.00023
79 | CATCTACA | 0.06
80 | AAGCAAGT | 0.0755
81 | ATCCAAGC | -0.186
82 | ATAGACTA | 0.0366
83 | CCCACTAC | 0.0352
84 | CCTCATCG | 0.0154
85 | CGAATGCC | -0.242
86 | CTTTAGTC | -0.162
87 | ATGCCGCG | 0.202
88 | GAGGTAGA | -0.2

Row | Sequence | PBM E-score
89 | GACTGGAC | -0.162
90 | CTAGACTA | -0.11
91 | CTAGGGGC | -0.174
92 | CTTAAACA | 0.0833
93 | GCCAGTAC | -0.205
94 | CTGTCAGC | 0.118
95 | CGCAACCC | 0.0754
96 | ATCGAGGG | -0.0376
97 | ACTACTGG | -0.15
98 | GAGTACAC | -0.0711
99 | CTAGGTTA | -0.0925
100 | CATAAACA | 0.194
101 | ACAGGTCT | -0.0496
102 | GTGGAAAC | -0.0721
103 | AAATTGAG | 0.0345
104 | ATTAGCGG | 0.125
105 | CGTTTAGC | 0.078
106 | AACCCTTG | -0.176
107 | ATCAGGCG | 0.073
108 | ATAACCGC | 0.0583
109 | AGCTAATA | 0.168
110 | CATCGGAA | 0.167
